{"sequences": {"note": "Protein sequences, listed by entry. Tags and fused reporters are not part of them.", "UniProt P54252": "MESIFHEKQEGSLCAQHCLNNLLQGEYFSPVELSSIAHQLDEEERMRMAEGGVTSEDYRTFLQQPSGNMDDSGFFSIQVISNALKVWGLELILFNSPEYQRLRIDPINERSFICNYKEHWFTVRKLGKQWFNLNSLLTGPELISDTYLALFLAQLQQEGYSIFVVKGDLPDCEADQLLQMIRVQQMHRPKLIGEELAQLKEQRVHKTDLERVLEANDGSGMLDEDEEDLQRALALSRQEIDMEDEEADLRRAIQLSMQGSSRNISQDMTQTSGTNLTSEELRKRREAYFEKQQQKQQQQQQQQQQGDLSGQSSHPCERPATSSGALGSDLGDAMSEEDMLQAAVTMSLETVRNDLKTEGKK"}, "source": "paper doi:10.1101/711424", "key": {"[1]": {"biological_target": "T1, Arginine/Serine-rich splicing factor 7 (SRSF7) (human (endogenous in SH-SY5Y)) (UniProt Q16629)", "T1 sequence": "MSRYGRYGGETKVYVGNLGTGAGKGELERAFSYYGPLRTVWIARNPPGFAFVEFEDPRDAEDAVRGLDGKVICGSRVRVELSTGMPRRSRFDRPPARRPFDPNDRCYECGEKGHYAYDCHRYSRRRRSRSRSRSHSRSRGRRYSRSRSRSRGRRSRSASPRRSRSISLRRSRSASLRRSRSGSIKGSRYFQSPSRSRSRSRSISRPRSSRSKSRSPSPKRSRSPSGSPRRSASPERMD", "assay": "co-IP"}, "[2]": {"biological_target": "T1, Arginine/Serine-rich splicing factor 7 (SRSF7) (human (endogenous in SH-SY5Y))", "assay": "proximity ligation"}}, "note": "No constants are given. Whether binding was seen depends on the method and setting. In cells and extracts the contact can be indirect. Some entries that bind do so weakly or less than the wild type."}
{"substance": "Ataxin-3 (ATXN3) (from UniProt P54252 1-361)", "values": [{"measurement": "binding", "setting": "[1]", "value": "binds"}, {"measurement": "binding", "setting": "[2]", "value": "binds"}]}
